PubChem BioAssay AID1259254 | NCATS, 2017

Test: 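Genome-wide screen for genes that prevent DNA re-replication in cancer cells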 (primary screen)
Cells: human HCT116 colorectal cancer cells
Knock-down reagent: single siRNA against human genes
Time to read-out: 3 days
Detection: 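Imaged Hoechst DNA stain sorts each cell into a cycle phase by DNA amount; per plate, G2 fraction set to 0% for non-targeting and 100% for GMNN siRNA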
Scale: G2 robust z-score and G2 cells, % of GMNN control: higher = more G2 cells, more excess DNA replication; raw share of cells in G2: higher = larger share of cells with G2 DNA content
Hit rule: 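Active siRNAs have a G2 robust z of 5 or more median absolute deviations over the median, which in these data means about 38% or higher of GMNN control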
This is one part, drawn at random, of about 59,000 reagents. About 1,550 of all reagents (2.6%) were called active. 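G2 share is only a proxy for re-replication; each gene was hit by three separate siRNAs, and active genes were retested.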 Raw values vary from plate to plate and are shown uncorrected. Unmarked entries are inactive. The numbers tell different reagents against one gene apart. The record does not give: the amount of reagent.

| gene | reagent no. | G2 robust z-score | G2 cells, % of GMNN control | raw share of cells in G2 (%) |
| --- | --- | --- | --- | --- |
| LOC283804 | 1 | -0.598 | -1.24 | 3.19 |
| LOC283804 | 2 | 0.385 | 5.68 | 5.24 |
| LOC283804 | 3 | 1.45 | 13.2 | 7.27 |
| CPT1C | 1 | -1.2 | -5.47 | 2.42 |
| CPT1C | 2 | -0.899 | -3.36 | 3.53 |
| CPT1C | 3 | 0.0365 | 3.22 | 7.17 |
| PHAX | 1 | -0.972 | -3.87 | 4.2 |
| PHAX | 2 | 0.595 | 7.15 | 6.89 |
| PHAX | 3 | -1.19 | -5.42 | 1.72 |
| GABRA6 | 1 | 0.171 | 4.17 | 6.81 |
| GABRA6 | 2 | 1.65 | 14.5 | 9.7 |
| GABRA6 | 3 | 2.92 | 23.5 | 13.5 |
| CIP2A | 1 | -0.855 | -3.05 | 3.14 |
| CIP2A | 2 | 2.03 | 17.2 | 12.7 |
| CIP2A | 3 | -0.438 | -0.112 | 2.99 |
| PEX26 | 1 | -1.15 | -5.12 | 1.5 |
| PEX26 | 2 | 1.26 | 11.8 | 9.07 |
| PEX26 | 3 | -0.693 | -1.91 | 3.35 |
| AKR1D1 | 1 | 4.36 | 33.7 | 17 |
| AKR1D1 | 2 | -1.11 | -4.81 | 2.9 |
| AKR1D1 | 3 | -1.04 | -4.37 | 2.51 |
| AHSA2P | 1 | 0.47 | 6.27 | 7.34 |
| AHSA2P | 2 | 0.779 | 8.45 | 7.79 |
| AHSA2P | 3 | -0.462 | -0.282 | 5.82 |
| ZNF554 | 1 | -0.212 | 1.47 | 3.6 |
| ZNF554 | 2 | 0.609 | 7.25 | 5.68 |
| ZNF554 | 3 | 0.314 | 5.18 | 5.34 |
| CXCR5 | 1 | -0.503 | -0.573 | 5.64 |
| CXCR5 | 2 | -0.318 | 0.732 | 4.77 |
| CXCR5 | 3 | -0.167 | 1.79 | 3.82 |
| COG5 | 1 | 4.78 | 36.6 | 15.7 |
| COG5 | 2 | -0.576 | -1.09 | 5.22 |
| COG5 | 3 | 2.03 | 17.3 | 13.3 |
| ARID5B | 1 | 1.24 | 11.7 | 6.93 |
| ARID5B | 2 | -0.0776 | 2.42 | 7 |
| ARID5B | 3 | 0.0632 | 3.41 | 4.7 |
| OR4X2 | 1 | 0.735 | 8.14 | 5.76 |
| OR4X2 | 2 | -0.428 | -0.0473 | 1.8 |
| OR4X2 | 3 | -0.0435 | 2.66 | 5.16 |
| MAPK4 | 1 | 1.21 | 11.5 | 9.41 |
| MAPK4 | 2 | 0.0592 | 3.38 | 5.22 |
| MAPK4 | 3 | -0.0226 | 2.81 | 6.36 |
| PDE4DIPP3 | 1 | -0.564 | -1 | 2.45 |
| PDE4DIPP3 | 2 | -0.14 | 1.98 | 4.31 |
| PDE4DIPP3 | 3 | 1.73 | 15.2 | 8.04 |
| SPATS2 | 1 | -0.287 | 0.946 | 4.99 |
| SPATS2 | 2 | -1.36 | -6.58 | 1.66 |
| SPATS2 | 3 | 0.00173 | 2.98 | 3.48 |
| GRK5 | 1 | -1.11 | -4.86 | 4 |
| GRK5 | 2 | -0.431 | -0.0652 | 5.39 |
| GRK5 | 3 | -0.408 | 0.0988 | 4.06 |
| MRTFA | 1 | -0.572 | -1.06 | 5.43 |
| MRTFA | 2 | -0.168 | 1.79 | 3.42 |
| MRTFA | 3 | -0.464 | -0.299 | 3.54 |
| RBPMS2 | 1 | -1.1 | -4.8 | 2.53 |
| RBPMS2 | 2 | -1.41 | -6.98 | 2.24 |
| RBPMS2 | 3 | -0.149 | 1.92 | 6.73 |
| CLEC17A | 1 | -1.16 | -5.18 | 2 |
| CLEC17A | 2 | 0.927 | 9.49 | 7.53 |
| CLEC17A | 3 | 0.321 | 5.22 | 6.87 |
| VNN3P | 1 | 3.78 | 29.6 | 19.4 |
| VNN3P | 2 | -1.17 | -5.3 | 2.54 |
| VNN3P | 3 | 0.542 | 6.78 | 7.16 |
| NEUROG3 | 1 | -0.545 | -0.865 | 3.47 |
| NEUROG3 | 2 | -0.493 | -0.504 | 5.72 |
| NEUROG3 | 3 | -1.17 | -5.24 | 2.31 |
| VSIG10L | 1 | -0.542 | -0.845 | 3.54 |
| VSIG10L | 2 | -0.32 | 0.719 | 3.13 |
| VSIG10L | 3 | -1.05 | -4.44 | 1.52 |
| RPL21P106 | 1 | -0.185 | 1.67 | 3.63 |
| RPL21P106 | 2 | -0.338 | 0.592 | 3.86 |
| RPL21P106 | 3 | 0.467 | 6.25 | 5.52 |
| PPIAP19 | 1 | 0.526 | 6.67 | 6.31 |
| PPIAP19 | 2 | -0.224 | 1.39 | 5.23 |
| PPIAP19 | 3 | 3.65 | 28.7 | 13.6 |
| TAS2R10 | 1 | 0.415 | 5.89 | 5.11 |
| TAS2R10 | 2 | 1.95 | 16.7 | 10.2 |
| TAS2R10 | 3 | 0.104 | 3.7 | 5.95 |
| FXR2 | 1 | 1.42 | 12.9 | 7.62 |
| FXR2 | 2 | 1.92 | 16.5 | 11.4 |
| FXR2 | 3 | 0.22 | 4.52 | 6.91 |
| DEFB136 | 1 | -0.495 | -0.518 | 3.42 |
| DEFB136 | 2 | -0.182 | 1.69 | 4.06 |
| DEFB136 | 3 | -0.826 | -2.84 | 2.15 |
| ANGPT2 | 1 | -0.786 | -2.56 | 4.16 |
| ANGPT2 | 2 | 6.62 (active) | 49.6 | 21.6 |
| ANGPT2 | 3 | -0.405 | 0.119 | 4.04 |

Reformatted: entries from further up.
PEX26 #2
- G2 robust z-score: 1.26
- G2 cells, % of GMNN control: 11.8
- raw share of cells in G2 (%): 9.07

PEX26 #3
- G2 robust z-score: -0.693
- G2 cells, % of GMNN control: -1.91
- raw share of cells in G2 (%): 3.35

AKR1D1 #1
- G2 robust z-score: 4.36
- G2 cells, % of GMNN control: 33.7
- raw share of cells in G2 (%): 17

AKR1D1 #2
- G2 robust z-score: -1.11
- G2 cells, % of GMNN control: -4.81
- raw share of cells in G2 (%): 2.9
